Data: publication PMC10091620
Results are given in words; binding and its absence hold for the method and conditions named. Binding seen in cells or lysates may run through a third protein. Some results given as binding are weak or reduced against the parent protein; the word gives no strength. Where a sequence is shown, tags or fusion partners need not be part of it. Values belong to the molecule of their own block, whether it stands above or below them.

Chains of the proteins cited; added tags and fusions are not shown.
UniProt P35222: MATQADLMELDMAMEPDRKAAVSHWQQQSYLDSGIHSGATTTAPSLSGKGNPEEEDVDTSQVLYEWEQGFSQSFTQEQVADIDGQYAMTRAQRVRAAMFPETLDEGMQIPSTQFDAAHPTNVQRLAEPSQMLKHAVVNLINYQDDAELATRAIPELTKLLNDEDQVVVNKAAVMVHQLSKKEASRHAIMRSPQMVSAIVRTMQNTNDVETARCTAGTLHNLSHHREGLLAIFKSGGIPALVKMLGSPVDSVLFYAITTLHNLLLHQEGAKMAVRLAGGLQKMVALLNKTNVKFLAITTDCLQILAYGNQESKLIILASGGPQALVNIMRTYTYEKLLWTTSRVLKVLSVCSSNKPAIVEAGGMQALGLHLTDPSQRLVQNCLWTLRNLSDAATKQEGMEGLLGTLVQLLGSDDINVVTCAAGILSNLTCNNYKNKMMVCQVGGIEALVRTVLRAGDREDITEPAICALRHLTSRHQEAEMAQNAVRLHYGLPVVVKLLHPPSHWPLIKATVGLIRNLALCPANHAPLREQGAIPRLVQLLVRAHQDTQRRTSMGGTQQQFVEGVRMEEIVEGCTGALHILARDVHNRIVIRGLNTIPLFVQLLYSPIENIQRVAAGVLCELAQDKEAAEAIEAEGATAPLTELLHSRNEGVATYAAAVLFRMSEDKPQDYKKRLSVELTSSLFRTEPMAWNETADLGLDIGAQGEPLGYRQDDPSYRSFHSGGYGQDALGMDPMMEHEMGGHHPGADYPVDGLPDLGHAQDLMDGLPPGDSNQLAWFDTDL

Legend:
[1] = target: T1, Myc-VDR (Myc-fused vitamin D receptor) (UniProt P11473); experiment: co-IP; cells expressing Myc-VDR and β-catenin lysed; 5 mg of protein immunoprecipitated with 100 μg of Myc antibody (Protein A/G Immunoprecipitation Kit); β-catenin detected by Western blot
T1 sequence: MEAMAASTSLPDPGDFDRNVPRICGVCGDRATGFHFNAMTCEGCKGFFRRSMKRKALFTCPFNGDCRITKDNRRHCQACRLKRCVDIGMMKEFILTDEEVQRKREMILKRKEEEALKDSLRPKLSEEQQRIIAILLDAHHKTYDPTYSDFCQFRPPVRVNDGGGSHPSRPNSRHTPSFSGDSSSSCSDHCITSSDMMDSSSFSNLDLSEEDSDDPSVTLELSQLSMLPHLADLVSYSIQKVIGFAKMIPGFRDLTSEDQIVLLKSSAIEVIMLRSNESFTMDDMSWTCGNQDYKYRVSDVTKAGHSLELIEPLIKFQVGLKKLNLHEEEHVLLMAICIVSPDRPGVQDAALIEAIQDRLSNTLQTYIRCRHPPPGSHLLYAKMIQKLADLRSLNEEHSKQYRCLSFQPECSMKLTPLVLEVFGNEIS

[2] = target: GST-β-catenin fusion protein (UniProt P35222); experiment: pull-down; about 100 μg GST-β-catenin immobilised on 50 μL glutathione agarose (4 °C, 1 h); about 100 μg Myc-VDR fusion protein added, 4 °C overnight; eluted with 10 mM glutathione in PBS (pH 8.0); Western blot

binding [1]: binds
Molecule: β-catenin (from UniProt P35222 1-781)

binding [2]: binds
B1: Myc-VDR (Myc-fused vitamin D receptor) (protein, UniProt P11473 1-427)
chain: T1 sequence
